Measurements from article PMC3297634.
Results are given in words; binding and its absence hold for the method and conditions named. Sequences can lack the tags named with a protein.

Experiments:
Assay in all cases: two-hybrid; pairwise tests: pNLX3-based (LexA) and pGAD-based constructs, L40 mated with AMR70 or L40 co-transformed; His+ and LacZ+, growth in selective medium
[1] = molecular target: T1, XRLIP(1–323), LexA fusion for two-hybrid (Xenopus laevis) (UniProt Q9PT60)
T1 sequence: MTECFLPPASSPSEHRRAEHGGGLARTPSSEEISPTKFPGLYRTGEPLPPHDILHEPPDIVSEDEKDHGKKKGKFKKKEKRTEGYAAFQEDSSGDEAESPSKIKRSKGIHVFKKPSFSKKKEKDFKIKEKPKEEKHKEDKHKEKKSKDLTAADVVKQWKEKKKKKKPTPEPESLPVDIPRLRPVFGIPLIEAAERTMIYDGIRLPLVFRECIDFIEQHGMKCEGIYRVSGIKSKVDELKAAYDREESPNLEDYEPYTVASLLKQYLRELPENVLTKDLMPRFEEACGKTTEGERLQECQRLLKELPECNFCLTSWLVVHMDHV

[2] = molecular target: T2, Xenopus RLIP (XRLIP), LexA fusion for two-hybrid (Xenopus laevis) (UniProt Q9PT60)
T2 sequence: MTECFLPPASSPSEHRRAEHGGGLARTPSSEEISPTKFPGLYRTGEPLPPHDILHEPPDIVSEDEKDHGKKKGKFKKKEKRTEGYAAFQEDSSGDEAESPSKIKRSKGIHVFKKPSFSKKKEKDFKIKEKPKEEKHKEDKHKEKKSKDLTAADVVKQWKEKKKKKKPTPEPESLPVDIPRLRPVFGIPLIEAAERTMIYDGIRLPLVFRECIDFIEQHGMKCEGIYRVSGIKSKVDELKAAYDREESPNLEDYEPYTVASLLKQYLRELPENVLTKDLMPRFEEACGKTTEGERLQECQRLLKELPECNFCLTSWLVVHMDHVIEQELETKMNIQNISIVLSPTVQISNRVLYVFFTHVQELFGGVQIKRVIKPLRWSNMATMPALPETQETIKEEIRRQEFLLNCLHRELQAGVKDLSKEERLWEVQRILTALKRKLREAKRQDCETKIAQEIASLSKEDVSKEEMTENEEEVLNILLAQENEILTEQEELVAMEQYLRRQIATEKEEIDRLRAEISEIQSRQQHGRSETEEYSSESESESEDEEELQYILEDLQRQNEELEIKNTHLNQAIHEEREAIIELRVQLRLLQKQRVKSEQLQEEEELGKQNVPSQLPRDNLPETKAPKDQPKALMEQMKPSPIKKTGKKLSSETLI

[3] = molecular target: T3, XRLIP(469-Cter), LexA fusion for two-hybrid (Xenopus laevis) (UniProt Q9PT60)
T3 sequence: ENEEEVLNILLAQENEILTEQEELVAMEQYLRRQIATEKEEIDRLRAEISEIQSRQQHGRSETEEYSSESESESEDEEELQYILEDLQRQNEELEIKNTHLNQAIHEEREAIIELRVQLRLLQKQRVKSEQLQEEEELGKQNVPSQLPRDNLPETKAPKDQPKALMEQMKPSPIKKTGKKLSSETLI

[4] = molecular target: T4, XRLIP 172-Cter (Δ475–492), LexA fusion for two-hybrid (Xenopus laevis) (UniProt Q9PT60)
T4 sequence: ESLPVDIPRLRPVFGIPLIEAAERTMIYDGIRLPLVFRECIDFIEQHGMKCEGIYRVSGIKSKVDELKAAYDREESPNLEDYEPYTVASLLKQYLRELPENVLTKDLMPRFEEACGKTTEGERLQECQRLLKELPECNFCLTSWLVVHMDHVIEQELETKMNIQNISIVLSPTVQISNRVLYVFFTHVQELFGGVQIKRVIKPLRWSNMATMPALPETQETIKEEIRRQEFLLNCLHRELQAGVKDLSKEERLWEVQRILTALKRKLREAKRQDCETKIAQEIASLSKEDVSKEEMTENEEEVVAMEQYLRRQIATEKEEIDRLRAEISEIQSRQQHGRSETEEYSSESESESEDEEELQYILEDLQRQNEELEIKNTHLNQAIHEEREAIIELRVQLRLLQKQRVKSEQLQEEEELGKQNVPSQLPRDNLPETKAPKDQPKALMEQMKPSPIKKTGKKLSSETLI

[5] = molecular target: T5, XRLIP(330-Cter), LexA fusion for two-hybrid (Xenopus laevis) (UniProt Q9PT60)
T5 sequence: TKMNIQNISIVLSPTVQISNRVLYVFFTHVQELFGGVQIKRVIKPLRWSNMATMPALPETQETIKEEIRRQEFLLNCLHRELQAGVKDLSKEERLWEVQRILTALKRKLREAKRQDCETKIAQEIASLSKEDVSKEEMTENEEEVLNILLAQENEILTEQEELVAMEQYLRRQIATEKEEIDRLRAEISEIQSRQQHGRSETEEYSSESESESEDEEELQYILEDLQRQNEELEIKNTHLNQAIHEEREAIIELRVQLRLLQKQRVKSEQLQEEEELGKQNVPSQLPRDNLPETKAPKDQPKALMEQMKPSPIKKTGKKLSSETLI

[6] = molecular target: T6, XRLIP(172–495), LexA fusion for two-hybrid (Xenopus laevis) (UniProt Q9PT60)
T6 sequence: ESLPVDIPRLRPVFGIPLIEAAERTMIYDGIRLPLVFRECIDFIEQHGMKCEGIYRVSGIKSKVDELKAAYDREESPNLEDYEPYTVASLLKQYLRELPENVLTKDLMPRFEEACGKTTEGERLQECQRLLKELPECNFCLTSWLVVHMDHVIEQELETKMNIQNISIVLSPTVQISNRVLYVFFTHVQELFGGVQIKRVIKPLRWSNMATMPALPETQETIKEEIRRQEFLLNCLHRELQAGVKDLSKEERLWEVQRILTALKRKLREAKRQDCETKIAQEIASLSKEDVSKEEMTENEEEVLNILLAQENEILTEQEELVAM

binding [1]: no binding
binding [2]: no binding
binding [3]: no binding
binding [4]: no binding
binding [5]: no binding
binding [6]: no binding
Substance: Xreps1(ΔRLIP-BD), pGAD-GE two-hybrid fusion (Xenopus laevis) (domain or fragment)
